{
  "source": "paper doi:10.64898/2025.12.01.691387",
  "binders": {"B1": {"name": "TLE5 (endogenous, HEK293T) (protein, UniProt Q08117 1-197)", "chain": "MMFPQSRHSGSSHLPQQLKFTTSDSCDRIKDEFQLLQAQYHSLKLECDKLASEKSEMQRHYVMYYEMSYGLNIEMHKQAEIVKRLNGICAQVLPYLSQEHQQQVLGAIERAKQVTAPELNSIIRQQLQAHQLSQLQALALPLTPLPVGLQPPSLPAVSAGTGLLSLSALGSQAHLSKEDKNGHDGDTHQEDDGEKSD"}},
  "target": "T1, FLAG-tagged HCMV UL82 (human cytomegalovirus (HCMV)) (UniProt P06726)",
  "T1 sequence": "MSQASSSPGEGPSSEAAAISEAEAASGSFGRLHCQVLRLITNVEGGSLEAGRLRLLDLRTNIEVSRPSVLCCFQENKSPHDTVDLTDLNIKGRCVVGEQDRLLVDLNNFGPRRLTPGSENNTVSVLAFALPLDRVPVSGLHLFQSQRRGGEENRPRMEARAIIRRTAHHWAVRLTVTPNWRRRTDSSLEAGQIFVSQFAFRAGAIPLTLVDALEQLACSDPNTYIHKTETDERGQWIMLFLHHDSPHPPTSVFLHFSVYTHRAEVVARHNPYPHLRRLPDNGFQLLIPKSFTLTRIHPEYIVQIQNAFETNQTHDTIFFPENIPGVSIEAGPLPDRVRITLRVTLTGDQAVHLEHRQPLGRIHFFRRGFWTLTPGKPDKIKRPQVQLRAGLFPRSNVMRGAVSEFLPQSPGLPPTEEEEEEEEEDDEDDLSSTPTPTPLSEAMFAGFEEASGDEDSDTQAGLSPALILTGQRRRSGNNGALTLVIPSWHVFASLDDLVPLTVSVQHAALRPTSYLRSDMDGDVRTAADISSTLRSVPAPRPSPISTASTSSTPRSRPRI",
  "test": "co-IP",
  "note": "Results are given in words; binding and its absence hold for the method and conditions named. In cells and extracts the contact can be indirect. Some results given as binding are weak or reduced against the parent protein; the word gives no strength. Sequences can lack the tags named with a protein.",
  "data": [
    {"binder": "B1", "values": [
      {"measurement": "binding", "result": "binds"}
    ]}
  ]
}
